# Assay: general procedure: solution-phase peptide synthesis; p-nitrophenyl active esters with TEA in DMF
# Conditions: coupling step
row,Substance,step yield [%]
1,BENZYLOXYCARBONYL-L-PYROGLUTAMYL-(γ-BENZYL)-L-GLUTAMYL-(β-BENZYL)-L-ASPARTYL-(S-p-METHOXYBENZYL)-L-CYSTEINYL-(ε-BENZYL-OXYCARBONYL)-L-LYSINE BENZYLESTER,96
2,t-Boc-(γ-BENZYL)-L-GLUTAMYL-(β-BENZYL)-L-ASPARTYL-(S-p-METHOXYBENZYL)-L-CYSTEINYL-(ε-BENZYLOXYCARBONYL)-L-LYSINE BENZYLESTER,100

# Reference: patent US4499081A (Nyegaard & Co A/S, priority 1982, dated 1985)
